Data reported in paper PMC4861423.
These are yes or no findings as the source states them, for the method shown. Binding seen in cells or lysates may run through a third protein. Some binding calls cover weakened binding; strength is not graded here.

Chains of the proteins cited; added tags and fusions are not shown. Residues count along the entry.
UniProt Q93050: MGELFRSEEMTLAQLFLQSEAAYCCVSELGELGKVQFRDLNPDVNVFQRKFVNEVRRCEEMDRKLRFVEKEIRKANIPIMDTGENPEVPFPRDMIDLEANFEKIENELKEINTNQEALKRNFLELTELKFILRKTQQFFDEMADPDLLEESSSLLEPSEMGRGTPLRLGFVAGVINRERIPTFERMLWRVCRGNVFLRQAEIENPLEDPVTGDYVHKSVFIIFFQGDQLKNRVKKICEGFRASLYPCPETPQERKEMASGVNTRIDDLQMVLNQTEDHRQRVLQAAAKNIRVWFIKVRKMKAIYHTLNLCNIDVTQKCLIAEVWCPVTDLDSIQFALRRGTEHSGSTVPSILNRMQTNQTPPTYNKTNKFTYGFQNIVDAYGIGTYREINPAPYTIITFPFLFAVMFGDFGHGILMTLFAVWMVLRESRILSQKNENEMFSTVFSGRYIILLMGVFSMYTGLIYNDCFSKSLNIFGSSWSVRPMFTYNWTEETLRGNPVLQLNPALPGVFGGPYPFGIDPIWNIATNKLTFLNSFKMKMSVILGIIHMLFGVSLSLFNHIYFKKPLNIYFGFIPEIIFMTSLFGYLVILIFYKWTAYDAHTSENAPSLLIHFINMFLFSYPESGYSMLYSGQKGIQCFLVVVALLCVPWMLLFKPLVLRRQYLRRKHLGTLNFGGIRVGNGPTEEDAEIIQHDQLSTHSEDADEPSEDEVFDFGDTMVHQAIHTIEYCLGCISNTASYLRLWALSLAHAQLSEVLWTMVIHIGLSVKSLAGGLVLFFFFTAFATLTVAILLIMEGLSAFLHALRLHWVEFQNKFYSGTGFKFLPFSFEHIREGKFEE
UniProt Q13488: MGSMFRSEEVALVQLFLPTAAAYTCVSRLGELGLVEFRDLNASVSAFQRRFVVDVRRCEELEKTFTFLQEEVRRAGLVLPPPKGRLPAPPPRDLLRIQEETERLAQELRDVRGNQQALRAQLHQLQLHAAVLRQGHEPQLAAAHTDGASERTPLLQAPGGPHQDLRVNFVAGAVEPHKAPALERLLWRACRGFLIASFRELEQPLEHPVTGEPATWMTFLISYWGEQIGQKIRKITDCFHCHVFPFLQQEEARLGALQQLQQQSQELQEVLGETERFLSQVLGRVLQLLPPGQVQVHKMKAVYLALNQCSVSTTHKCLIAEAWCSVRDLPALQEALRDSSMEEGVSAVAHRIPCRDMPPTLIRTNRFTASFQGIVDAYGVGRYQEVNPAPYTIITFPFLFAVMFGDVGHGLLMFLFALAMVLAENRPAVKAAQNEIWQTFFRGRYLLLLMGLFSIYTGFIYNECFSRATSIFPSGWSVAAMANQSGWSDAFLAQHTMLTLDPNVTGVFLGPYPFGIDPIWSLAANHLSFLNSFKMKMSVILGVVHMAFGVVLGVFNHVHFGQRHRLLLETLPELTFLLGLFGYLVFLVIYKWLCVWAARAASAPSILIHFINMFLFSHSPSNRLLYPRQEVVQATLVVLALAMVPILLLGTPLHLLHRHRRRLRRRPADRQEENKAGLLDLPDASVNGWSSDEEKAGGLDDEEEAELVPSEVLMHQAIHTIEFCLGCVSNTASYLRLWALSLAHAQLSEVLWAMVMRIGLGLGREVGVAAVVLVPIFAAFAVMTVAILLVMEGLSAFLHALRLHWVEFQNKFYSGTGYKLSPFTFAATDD
UniProt Q15904, residues 42-470: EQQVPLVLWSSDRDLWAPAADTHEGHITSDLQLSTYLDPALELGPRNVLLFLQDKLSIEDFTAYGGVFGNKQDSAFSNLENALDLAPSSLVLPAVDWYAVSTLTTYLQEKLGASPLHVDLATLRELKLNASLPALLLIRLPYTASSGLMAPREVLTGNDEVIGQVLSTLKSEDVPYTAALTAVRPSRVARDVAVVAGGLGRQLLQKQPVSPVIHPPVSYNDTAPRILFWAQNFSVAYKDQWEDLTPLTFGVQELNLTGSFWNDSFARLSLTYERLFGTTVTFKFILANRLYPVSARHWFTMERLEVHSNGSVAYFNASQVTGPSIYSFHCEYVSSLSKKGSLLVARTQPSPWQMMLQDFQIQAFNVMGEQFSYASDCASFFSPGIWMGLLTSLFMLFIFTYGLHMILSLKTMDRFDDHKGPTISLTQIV

Legend:
[1] = molecular target: V-ATPase membrane subunit a isoform 1 (ATP6V0A1) (human (endogenous in PC-3)) (UniProt Q93050); experiment: co-IP; endogenous proteins of PC-3 cells solubilised in RIPA buffer (1% Nonidet P-40, 0.5% deoxycholate, 150 mM NaCl), lysate 1 mg/ml; rabbit anti-a3 antiserum or anti-a1 rabbit IgG, 4 °C, 6 h; beads washed three times with RIPA; immunoblot; pre-immune/normal rabbit serum as control
[2] = molecular target: V-ATPase membrane subunit a isoform 3 (ATP6V0A3) (human (endogenous in PC-3)) (UniProt Q13488); experiment: as above

Row | binding [1] | binding [2] | Substance
1 | no binding | – | V-ATPase membrane subunit a isoform 3 (ATP6V0A3) (from UniProt Q13488 1-830)
2 | – | no binding | V-ATPase membrane subunit a isoform 1 (ATP6V0A1) (from UniProt Q93050 1-837)
3 | binds | binds | V-ATPase accessory protein Ac45 (ATP6AP1) (from UniProt Q15904 42-470)
